Laboratory results published in PubChem BioAssay AID256 (DTP/NCI, 2004).
The list shows only some results of the screen, not a fair sample: it gathers tests that were run many times, whatever their T/C, doses with no T/C, and many T/C values between a quarter and a half above the control. Other doses and runs of a compound stand elsewhere. T/C is the treated group as % of the vehicle group. Some doses have a count of surviving animals in place of a T/C: the source files T/C as zero there, which appears to mark a toxic dose or a test without result, not a measured value. Some doses without a T/C left all or most animals alive at the check, yet need not have been tolerated: the source hardly ever lists a survival T/C far under the control, and the zero likely stands for such cases as well. Survivors were counted at the toxicity check, usually on the fifth day, unless a day is given; later deaths do not show. Schedules are NCI's codes, read here as Q, the interval in days (D) or hours (H), X, the number of doses. Some entries were tested several times; the values are given in rising order. Some structures stand for samples that the source files as different forms (salt, stereo form or complex); doses refer to the form tested. Where survival is the endpoint, this PubChem deposit counts one and a half times the control or more as active, and values a quarter to a half above the control carry no call in these data; other NCI protocols may use other cut-offs. Some T/C values are followed by the survivors on the day toxicity was checked, most often the fifth; without a count, all were alive then.

Test system: CD2F1 mice, L1210 leukemia ip, survival T/C
Assay: NCI In Vivo Anticancer Drug Screen. Data for tumor model L1210 Leukemia (intraperitoneal) in CD2F1 (CDF1) mice
Conditions: higher T/C = longer survival
Description: The antitumor activity of compounds was measured in mice bearing transplantable tumors. Survival or tumor size were measured and the results are expressed as the measurement made in the treated group (T) divided by the measurement made in the vehicle treated control group (C). The tumor model used in this assay is L1210 Leukemia (intraperitoneal) in CD2F1 (CDF1) mice

[1] = T/C endpoint: mean survival time, dose: 100.0 mg/kg/injection, schedule: Q04DX002 (ip), vehicle: saline with Tween-80
[2] = T/C endpoint: mean survival time, dose: 400.0 mg/kg/injection, schedule: Q04DX002 (ip), vehicle: saline with Tween-80
[3] = T/C endpoint: mean survival time, dose: 400.0 mg/kg/injection, schedule: Q01DX009 (ip), vehicle: saline
[4] = T/C endpoint: mean survival time, dose: 400.0 mg/kg/injection, schedule: Q04DX003 (ip), vehicle: saline with Tween-80
[5] = T/C endpoint: mean survival time, dose: 400.0 mg/kg/injection, schedule: Q01DX001 (ip), vehicle: saline with Tween-80

## Cc1ccc(NC2=NCCS2)c(C)c1
[1]
  T/C: 89, 97, 98, 100 % of control
T/C endpoint: mean survival time, dose: 200.0 mg/kg/injection, schedule: Q04DX002 (ip), vehicle: saline with Tween-80
  survivor count: 0 of 3 and 1 of 6
[2]
  survivor count: 0 of 3 and 0 of 6

## O=c1n[n+]([O-])ccn1C1OC(CO)C(O)C1O (stereo not drawn)
T/C endpoint: mean survival time, dose: 100.0 mg/kg/injection, schedule: Q01DX009 (ip), vehicle: saline
  T/C: 134 % of control
T/C endpoint: mean survival time, dose: 200.0 mg/kg/injection, schedule: Q01DX009 (ip), vehicle: saline
  T/C: 129, 130, 137, 139 % of control
T/C endpoint: mean survival time, dose: 300.0 mg/kg/injection, schedule: Q01DX009 (ip), vehicle: saline
  T/C: 125 % of control
[3]
  T/C: 125 [4 of 6 alive] and 139 % of control
T/C endpoint: mean survival time, dose: 450.0 mg/kg/injection, schedule: Q01DX009 (ip), vehicle: saline
  T/C: 144 % of control
T/C endpoint: mean survival time, dose: 600.0 mg/kg/injection, schedule: Q01DX009 (ip), vehicle: saline
  survivor count: 1 of 6 and 5 of 6
T/C endpoint: median survival time, dose: 88.0 mg/kg/injection, schedule: Q01DX009 (ip), vehicle: saline
  T/C: 125 % of control
T/C endpoint: median survival time, dose: 103.68 mg/kg/injection, schedule: Q01DX009 (ip), vehicle: saline
  T/C: 128 % of control
T/C endpoint: median survival time, dose: 133.3 mg/kg/injection, schedule: Q01DX009 (ip), vehicle: saline
  T/C: 129 % of control
T/C endpoint: median survival time, dose: 133.5 mg/kg/injection, schedule: Q01DX009 (ip), vehicle: saline
  T/C: 131 % of control
T/C endpoint: median survival time, dose: 172.8 mg/kg/injection, schedule: Q01DX009 (ip), vehicle: saline
  T/C: 128 % of control
T/C endpoint: median survival time, dose: 200.0 mg/kg/injection, schedule: Q01DX009 (ip), vehicle: saline
  T/C: 135 % of control
T/C endpoint: median survival time, dose: 600.0 mg/kg/injection, schedule: Q01DX009 (ip), vehicle: saline
  survivor count: 6 of 10
T/C endpoint: median survival time, dose: 800.0 mg/kg/injection, schedule: Q01DX009 (ip), vehicle: saline
  survivor count: 1 of 10

## Clc1cc(Cl)cc(Nc2nc(C(Cl)(Cl)Cl)nc(C(Cl)(Cl)Cl)n2)c1
[4]
  survivor count: 3 of 6

## [CH3][Sn]([Br])([Br])[CH2]CCCBr
T/C endpoint: mean survival time, dose: 12.5 mg/kg/injection, schedule: Q01DX009 (ip), vehicle: saline
  survivor count: 3 of 3
T/C endpoint: mean survival time, dose: 25.0 mg/kg/injection, schedule: Q01DX009 (ip), vehicle: saline
  survivor count: 0 of 3

## c1ccc2c[n+](CCc3c[nH]c4ccccc34)ccc2c1
T/C endpoint: mean survival time, dose: 100.0 mg/kg/injection, schedule: Q04DX002 (ip), vehicle: other
  survivor count: 0 of 3

## CCCCN(C)N=Nc1ccccc1C(=O)O
T/C endpoint: mean survival time, dose: 100.0 mg/kg/injection, schedule: Q01DX009 (ip), vehicle: other
  survivor count: 3 of 6
T/C endpoint: mean survival time, dose: 200.0 mg/kg/injection, schedule: Q01DX009 (ip), vehicle: other
  survivor count: 0 of 6
T/C endpoint: mean survival time, dose: 400.0 mg/kg/injection, schedule: Q01DX009 (ip), vehicle: other
  survivor count: 0 of 6

## O=c1ccn(C2CC3[O][Sn]([c]4ccccc4)([c]4ccccc4)[O]CC3O2)c(=O)[nH]1 (stereo not drawn)
T/C endpoint: mean survival time, dose: 50.0 mg/kg/injection, schedule: Q01DX005 (ip), vehicle: distilled water + Tween-80
  survivor count: 6 of 6

## CCc1c(C)[nH]c2ccc([N+](=O)[O-])cc12
[4]
  survivor count: 1 of 6

## CCC[CH2][Sn]([CH2]CCC)([O]C(=O)COc1ccc(C(=O)c2ccccc2)c(O)c1)[O]C(=O)COc1ccc(C(=O)c2ccccc2)c(O)c1
T/C endpoint: mean survival time, dose: 25.0 mg/kg/injection, schedule: Q01DX001 (ip), vehicle: saline with Tween-80
  survivor count: 0 of 3
T/C endpoint: mean survival time, dose: 50.0 mg/kg/injection, schedule: Q01DX001 (ip), vehicle: saline with Tween-80
  survivor count: 0 of 3
T/C endpoint: mean survival time, dose: 100.0 mg/kg/injection, schedule: Q01DX001 (ip), vehicle: saline with Tween-80
  survivor count: 1 of 3
T/C endpoint: mean survival time, dose: 200.0 mg/kg/injection, schedule: Q01DX001 (ip), vehicle: saline with Tween-80
  survivor count: 0 of 3
[5]
  survivor count: 0 of 3

## COc1ccc(NC(=O)Oc2ccc(C3CCCCC3)cc2)cc1
[1]
  survivor count: 3 of 3
[2]
  survivor count: 3 of 3

## CC(O)CNc1nc(N)[nH]c(=O)c1[N+](=O)[O-] (stereo not drawn)
[5]
  survivor count: 3 of 6

## CN(C)N=Nc1ccc([N+](=O)[O-])cc1C(N)=O
T/C endpoint: mean survival time, dose: 300.0 mg/kg/injection, schedule: Q01DX009 (ip), vehicle: Klucel (hydroxypropylcellulose) (HPC)
  survivor count: 6 of 6

## Cc1ccc(C2(SCC(N)C(=O)O)c3ccccc3-c3ccccc32)cc1 (stereo not drawn)
[3]
  survivor count: 0 of 6

## CN(C)CC1CCC(CN(C)C)C1=O (stereo not drawn)
T/C endpoint: mean survival time, dose: 75.0 mg/kg/injection, schedule: Q01DX001 (ip), vehicle: other
  survivor count: 0 of 6
T/C endpoint: mean survival time, dose: 75.0 mg/kg/injection, schedule: Q01DX001 (ip), vehicle: saline
  survivor count: 0 of 6
T/C endpoint: mean survival time, dose: 150.0 mg/kg/injection, schedule: Q01DX001 (ip), vehicle: other
  survivor count: 0 of 6
T/C endpoint: mean survival time, dose: 150.0 mg/kg/injection, schedule: Q01DX001 (ip), vehicle: saline
  survivor count: 0 of 6
T/C endpoint: mean survival time, dose: 300.0 mg/kg/injection, schedule: Q01DX001 (ip), vehicle: other
  survivor count: 0 of 6
T/C endpoint: mean survival time, dose: 300.0 mg/kg/injection, schedule: Q01DX001 (ip), vehicle: saline
  survivor count: 0 of 6

## O=NN(CCF)C(=O)NC1C(O)CCCC1O (stereo not drawn)
T/C endpoint: median survival time, dose: 1.25 mg/kg/injection, schedule: Q04DX002 (ip), vehicle: saline
  T/C: 125 % of control
T/C endpoint: median survival time, dose: 2.5 mg/kg/injection, schedule: Q04DX002 (ip), vehicle: saline
  T/C: 130 % of control
T/C endpoint: median survival time, dose: 80.0 mg/kg/injection, schedule: Q04DX002 (ip), vehicle: saline
  survivor count: 3 of 6
T/C endpoint: median survival time, dose: 160.0 mg/kg/injection, schedule: Q04DX002 (ip), vehicle: saline
  survivor count: 2 of 6
T/C endpoint: median survival time, dose: 320.0 mg/kg/injection, schedule: Q04DX002 (ip), vehicle: saline
  survivor count: 0 of 6

## CCCSc1ncnc2nc[nH]c12
T/C endpoint: median survival time, dose: 250.0 mg/kg/injection, schedule: Q01DX009 (ip), vehicle: saline
  survivor count: 2 of 6

## CC1C2C=CC(C2)C1C(=O)O (stereo not drawn)
T/C endpoint: mean survival time, dose: 400.0 mg/kg/injection, schedule: Q01DX009 (ip), vehicle: saline with Tween-80
  survivor count: 6 of 6

## CC[N+](CC)(CC)Cc1ccccc1
T/C endpoint: mean survival time, dose: 100.0 mg/kg/injection, schedule: Q04DX003 (ip), vehicle: saline with Tween-80
  survivor count: 0 of 6
T/C endpoint: mean survival time, dose: 200.0 mg/kg/injection, schedule: Q04DX003 (ip), vehicle: saline with Tween-80
  survivor count: 0 of 6
[4]
  survivor count: 0 of 6

## CC(=O)OCC1OC(n2cnc3c(NC(=O)c4ccccc4)ncnc32)C(OC(C)=O)C1OC(C)=O (stereo not drawn)
T/C endpoint: mean survival time, dose: 200.0 mg/kg/injection, schedule: Q01DX005 (ip), vehicle: distilled water + Tween-80
  survivor count: 3 of 6
